Measurements reported in publication PMC4482739, “MamA as a Model Protein for Structure-Based Insight into the Evolutionary Origins of Magnetotactic Bacteria” (PLoS ONE, 2015).
These are yes or no findings as the source states them, for the method shown.

Target: MamAΔ41 from Magnetospirillum magneticum AMB-1 (Magnetospirillum magneticum AMB-1) (UniProt Q2W8Q0)
Assay: SEC; Superdex 200; sizes from elution volumes against protein markers; buffer for these proteins not stated; both purified

binding: no binding
B1: MamAΔ41 from Magnetospirillum magneticum AMB-1 (domain or fragment, UniProt Q2W8Q0 42-217)
chain: DDIRQVYYRDKGISHAKAGRYSQAVMLLEQVYDADAFDVDVALHLGIAYVKTGAVDRGTELLERSLADAPDNVKVATVLGLTYVQVQKYDLAVPLLIKVAEANPINFNVRFRLGVALDNLGRFDEAIDSFKIALGLRPNEGKVHRAIAFSYEQMGRHEEALPHFKKANELDEGASV
